# Percent effect of library compounds

Sequences of proteins named here, by UniProt entry; tags and fusion partners are left off. Residues count along the entry.
UniProt I6X8D2, whole entry: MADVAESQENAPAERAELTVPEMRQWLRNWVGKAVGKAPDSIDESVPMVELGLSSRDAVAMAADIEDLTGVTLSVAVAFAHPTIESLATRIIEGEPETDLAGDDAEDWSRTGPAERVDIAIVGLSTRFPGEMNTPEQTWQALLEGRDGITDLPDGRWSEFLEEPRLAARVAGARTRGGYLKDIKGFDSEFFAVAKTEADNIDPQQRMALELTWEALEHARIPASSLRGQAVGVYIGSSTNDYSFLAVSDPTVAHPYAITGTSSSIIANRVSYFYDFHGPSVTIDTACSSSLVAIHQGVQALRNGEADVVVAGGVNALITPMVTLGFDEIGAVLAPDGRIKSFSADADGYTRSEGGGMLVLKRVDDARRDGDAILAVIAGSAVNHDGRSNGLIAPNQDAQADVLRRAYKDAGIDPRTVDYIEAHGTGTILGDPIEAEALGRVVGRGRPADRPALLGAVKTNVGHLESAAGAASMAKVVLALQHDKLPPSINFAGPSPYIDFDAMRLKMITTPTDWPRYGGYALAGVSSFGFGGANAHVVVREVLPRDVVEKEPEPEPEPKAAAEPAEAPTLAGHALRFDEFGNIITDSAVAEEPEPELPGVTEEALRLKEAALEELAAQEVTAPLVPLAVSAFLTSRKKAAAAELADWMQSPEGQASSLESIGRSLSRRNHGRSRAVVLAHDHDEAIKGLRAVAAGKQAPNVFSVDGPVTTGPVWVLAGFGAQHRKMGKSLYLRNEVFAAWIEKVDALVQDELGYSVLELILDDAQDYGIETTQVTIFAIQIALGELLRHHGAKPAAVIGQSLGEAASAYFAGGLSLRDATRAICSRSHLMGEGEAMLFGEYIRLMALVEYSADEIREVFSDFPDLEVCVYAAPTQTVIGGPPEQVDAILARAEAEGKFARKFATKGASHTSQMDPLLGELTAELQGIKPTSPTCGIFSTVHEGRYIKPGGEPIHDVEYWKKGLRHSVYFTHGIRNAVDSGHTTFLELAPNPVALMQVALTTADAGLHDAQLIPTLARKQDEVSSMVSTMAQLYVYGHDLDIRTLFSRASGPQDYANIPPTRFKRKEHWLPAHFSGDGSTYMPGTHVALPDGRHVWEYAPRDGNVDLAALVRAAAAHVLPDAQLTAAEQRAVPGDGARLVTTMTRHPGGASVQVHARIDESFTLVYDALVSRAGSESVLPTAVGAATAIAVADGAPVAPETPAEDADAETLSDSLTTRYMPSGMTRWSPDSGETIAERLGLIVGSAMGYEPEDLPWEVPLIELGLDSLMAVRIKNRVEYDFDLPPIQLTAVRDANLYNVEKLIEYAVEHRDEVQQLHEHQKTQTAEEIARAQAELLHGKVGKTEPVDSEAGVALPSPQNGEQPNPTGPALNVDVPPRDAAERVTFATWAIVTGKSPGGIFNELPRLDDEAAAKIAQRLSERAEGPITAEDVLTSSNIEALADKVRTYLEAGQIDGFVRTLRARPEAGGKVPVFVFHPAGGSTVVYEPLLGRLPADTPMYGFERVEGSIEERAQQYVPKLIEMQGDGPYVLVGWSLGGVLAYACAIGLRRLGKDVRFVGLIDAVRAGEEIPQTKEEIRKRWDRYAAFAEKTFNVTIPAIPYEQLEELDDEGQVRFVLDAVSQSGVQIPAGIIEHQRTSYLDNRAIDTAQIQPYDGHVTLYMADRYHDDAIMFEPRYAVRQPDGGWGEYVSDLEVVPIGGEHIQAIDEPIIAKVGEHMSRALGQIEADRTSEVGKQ
UniProt Q4DA54, 1-478: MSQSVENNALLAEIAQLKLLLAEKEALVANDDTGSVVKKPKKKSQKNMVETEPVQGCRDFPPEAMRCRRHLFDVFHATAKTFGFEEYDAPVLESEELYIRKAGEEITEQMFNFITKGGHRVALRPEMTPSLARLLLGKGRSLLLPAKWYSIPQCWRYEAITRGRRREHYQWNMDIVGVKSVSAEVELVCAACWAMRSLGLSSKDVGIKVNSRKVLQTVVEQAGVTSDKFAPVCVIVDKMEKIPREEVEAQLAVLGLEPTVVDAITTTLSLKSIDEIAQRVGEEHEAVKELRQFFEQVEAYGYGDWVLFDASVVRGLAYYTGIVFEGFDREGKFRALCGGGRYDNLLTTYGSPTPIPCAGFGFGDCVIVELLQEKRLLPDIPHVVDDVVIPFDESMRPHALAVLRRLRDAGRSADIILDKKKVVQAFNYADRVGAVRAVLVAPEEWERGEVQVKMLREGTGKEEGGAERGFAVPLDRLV
UniProt A4I591, 1-473: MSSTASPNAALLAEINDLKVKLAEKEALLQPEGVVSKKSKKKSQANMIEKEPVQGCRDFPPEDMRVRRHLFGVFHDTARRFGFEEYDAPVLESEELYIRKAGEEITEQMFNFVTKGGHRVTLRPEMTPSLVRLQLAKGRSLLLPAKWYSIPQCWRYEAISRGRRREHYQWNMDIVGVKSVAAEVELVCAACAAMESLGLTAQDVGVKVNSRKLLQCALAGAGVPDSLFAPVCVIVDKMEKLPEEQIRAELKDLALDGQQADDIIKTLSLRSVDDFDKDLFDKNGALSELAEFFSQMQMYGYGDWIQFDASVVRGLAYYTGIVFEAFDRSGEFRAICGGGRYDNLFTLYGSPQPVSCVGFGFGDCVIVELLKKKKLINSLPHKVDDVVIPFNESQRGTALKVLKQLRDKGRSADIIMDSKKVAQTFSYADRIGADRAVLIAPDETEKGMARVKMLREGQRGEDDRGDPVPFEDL

Data taken from ChEMBL document CHEMBL3988442, “University of Dundee, Small-Polar-MMV Screening Library” (2021).

Results are given as percent effect. How 0% and 100% were set is not recorded. Most values in the screen are low, and negative values occur. The compounds are a random part of those screened. A dash means the value is not listed here; it may have been measured.

A: 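Polyketide synthase Pks13, Mycobacterium tuberculosis (UniProt I6X8D2). Enzyme assay of the thioesterase domain of polyketide synthase 13; the read-out is not stated. Concentration: 30 µM. The record gives no direction; the compounds picked for IC50 retests had high values, so higher reads as stronger inhibition. Size under these conditions: about 67,000 compounds, about 300 of them at 50% or above in at least one test.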
B: 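Enzyme assay of histidyl-tRNA synthetase; the read-out is not stated. Target: Histidine-tRNA ligase, Trypanosoma cruzi CL Brener (UniProt Q4DA54). Compounds at 30 µM. Higher reads as stronger inhibition (inferred: compounds with an IC50 in retests scored well above the rest). Of about 69,000 compounds tested this way, about 31 (0.045%) reached 50% or more in at least one test.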
C: 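Histidine-tRNA ligase, Leishmania infantum (UniProt A4I591). Enzyme assay of histidyl-tRNA synthetase; the read-out is not stated. Concentration: 30 µM. Higher reads as stronger inhibition (inferred: compounds with an IC50 in retests scored well above the rest). The assay is labelled LdHisRS but filed under L. infantum. Size under these conditions: about 69,000 compounds, about 410 of them at 50% or above in at least one test.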

SMILES,A,B,C
c1cc(-c2cn[nH]c2)ncc1CN1CCCCC1,-6.068%,3.863%,13.11%
Cc1nc(C)c(C(=O)N2CCN(CCOc3ccccc3C)CC2)o1,-33.51%,10.78%,3.797%
CN(C)c1ccc(CNC(=O)NCCc2cccs2)cn1,-4.681%,2.006%,12.28%
CC1CCCN(c2ccccc2OCC(=O)NC2CCOCC2)C1 (centres unmarked),1.896%,-1.676%,28.95%
CNC(=O)[C@@H]1C[C@@H](N)CN1Cc1ccc2cccc(OC)c2n1,-22.89%,1.63%,18.67%
CN(c1ccc2ccccc2c1)S(=O)(=O)c1cc(C(=O)O)cs1,-3.266%,-15.96%,10.45%
CCN(C)C(C(=O)Nc1ccc2c(c1)CCC(=O)N2)c1ccccc1 (centres unmarked),6.179%,12.61%,10.53%
Cc1cc(F)ccc1S(=O)(=O)NCC(O)c1cccn1C (centres unmarked),-46.29%,3.093%,8.696%
CO[C@@H]1CCN(c2ncc(F)cn2)[C@@H]2CN(Cc3cccnc3)C[C@@H]21,-15.15%,7.527%,8.772%
C/C=C(\C)CN1C[C@H](c2cccc(OC)c2)[C@@H](N)C1,-29.45%,7.389%,-11.84%
O=C(NCc1ccon1)Nc1cc(F)ccc1N1CCCCC1,1.966%,5.357%,23.01%
CN1CCO[C@@H]2CN(C(=O)COc3cccc(Cl)c3)C[C@@H]2C1,-6.792%,3.797%,18.97%
CC(C)NC(=O)N1C[C@H]2C[C@H](C(=O)NCc3ccccc3)[C@@H](C1)O2,-9.356%,3.825%,17.65%
COCc1ccc(C(=O)NS(=O)(=O)c2ccc3c(c2)CCC(=O)N3)cc1,-12.26%,3.922%,1.6%
CCNc1cc2c(nn1)CCN(C(=O)c1cccc3c1OCCO3)C2,-7.053%,3.053%,16.44%
Cc1nc(CN2CCN(C(C)c3nc(C4CC4)no3)CC2)no1 (centres unmarked),-13.93%,6.553%,13.68%
O=C(Nc1cnn(Cc2ccc(Cl)cc2)c1)N[C@@H]1C=C[C@H](CO)C1,-25.21%,0.4926%,1.299%
CN(Cc1nnn(CC2CC2)n1)C(=O)c1ccccc1,-41.07%,6.466%,-6.329%
C[C@@H]1CN(c2ccc(Cl)cn2)C[C@]1(C)O,-4.791%,10.05%,5.882%
CN1C(=O)CO[C@H]2CN(C(=O)c3ccc4c(c3)CCCC4)C[C@@H]21,-4.391%,1.515%,0%
CN(C)CCOCc1cncc2c1CCN(Cc1ccccn1)C2,-7.315%,5.288%,0.9174%
O=C(Cc1ccc2c(c1)CCC2)N1CCCC(n2cccn2)C1 (centres unmarked),-16.13%,-2.521%,8.264%
O=C(NCc1ccccc1Cn1cncn1)C1CCC1,-22%,6.358%,14.91%
CN1CCCC(c2ccc(N3CCOCC3)cn2)C1 (centres unmarked),1.344%,5.429%,13.42%
CC(C)C(NCc1ccc(Cn2cncn2)cc1)c1ccc(F)cn1 (centres unmarked),6.088%,8%,2.041%
O=C(NCCc1c[nH]cn1)C1CCCN(C2CCOCC2)C1 (centres unmarked),-9.778%,8.442%,17.74%
O=C(c1coc(-c2ccccc2)n1)N1CCS(=O)(=O)CC1,-4.096%,7.407%,9.804%
Cc1cc(CNc2cc(Cl)ccc2OCCS(C)(=O)=O)no1,-13.72%,0.7634%,19.15%
Cn1cccc1C(=O)N[C@H]1CN(Cc2ccoc2)[C@@H]2CCCO[C@H]12,-51.57%,3.315%,2.703%
Cc1ccccc1CN1CCNC(=O)C1CC(=O)NCC1CCCCC1 (centres unmarked),-53.85%,-1.064%,6.25%
O=C(O)c1cccc(S(=O)(=O)N2CCOc3ccccc32)c1,-8.991%,3.812%,10.19%
COCCn1cc(C(=O)N2CCCC2c2ccncc2)c2ccccc21 (centres unmarked),-11.23%,0%,5.556%
O=c1[nH]c2nc(NCC3CCCO3)ncc2c(=O)n1-c1ccc(F)cc1 (centres unmarked),0.5495%,4.39%,8.475%
O=C(CCCc1nc2ccccc2[nH]1)N1CCCC1c1ccccn1 (centres unmarked),26.66%,9.091%,6.667%
Cc1oc(CNC(=O)Cc2ccc3ccccc3c2)cc1C(=O)O,-17.27%,0.9804%,-3.333%
Cc1noc(C)c1-c1nc(N(C)C)ncc1-c1cnccn1,22.61%,2.239%,-9.474%
CC(=O)Nc1ccsc1C(=O)Nc1cnc2n1CCCC2,-35.81%,3.96%,23.29%
O=C(NCc1nncn1-c1ccccc1)C1CCCC1,-1.896%,3.198%,9.649%
Cc1ncc(-c2ccnc(N[C@@H](C)CO)n2)c(C2CCCCC2)n1,-23.04%,5.65%,8.571%
Cc1ncsc1C(=O)NCCNc1ncccc1C#N,-0.4731%,2.616%,9.649%
Oc1cc(CNCCCN2CCCC2)nc2ccc(F)cc12,-,7.831%,21.98%
CCc1nnc2n1CCN(C(=O)c1cnc(-c3cccs3)s1)C2,38.88%,9.74%,14.52%
CCOC(=O)c1ccc(CNC(=O)c2ccc(C)nc2)o1,-10.58%,-1.724%,-7.895%
Cc1cc(C)n(CC2CCCN2C(=O)c2c[nH]c(=O)c(Cl)c2)n1 (centres unmarked),-4.629%,2.006%,8.772%

Repeated from the top, 5 entries:

c1cc(-c2cn[nH]c2)ncc1CN1CCCCC1 gave A: -6.068%; B: 3.863%; C: 13.11%.
Cc1nc(C)c(C(=O)N2CCN(CCOc3ccccc3C)CC2)o1 gave A: -33.51%; B: 10.78%; C: 3.797%.
CN(C)c1ccc(CNC(=O)NCCc2cccs2)cn1 gave A: -4.681%; B: 2.006%; C: 12.28%.
CC1CCCN(c2ccccc2OCC(=O)NC2CCOCC2)C1 (centres unmarked) gave A: 1.896%; B: -1.676%; C: 28.95%.
CNC(=O)[C@@H]1C[C@@H](N)CN1Cc1ccc2cccc(OC)c2n1 gave A: -22.89%; B: 1.63%; C: 18.67%.